Laboratory results from patent publication US20200155655A1.
These are yes or no findings as the source states them, for the method shown. Some binding calls cover weakened binding; strength is not graded here.

Amino acid sequences for entries named in this document (tags omitted). A change or cut given only in a name is not applied to a line headed by its entry.
UniProt Q8NEB9: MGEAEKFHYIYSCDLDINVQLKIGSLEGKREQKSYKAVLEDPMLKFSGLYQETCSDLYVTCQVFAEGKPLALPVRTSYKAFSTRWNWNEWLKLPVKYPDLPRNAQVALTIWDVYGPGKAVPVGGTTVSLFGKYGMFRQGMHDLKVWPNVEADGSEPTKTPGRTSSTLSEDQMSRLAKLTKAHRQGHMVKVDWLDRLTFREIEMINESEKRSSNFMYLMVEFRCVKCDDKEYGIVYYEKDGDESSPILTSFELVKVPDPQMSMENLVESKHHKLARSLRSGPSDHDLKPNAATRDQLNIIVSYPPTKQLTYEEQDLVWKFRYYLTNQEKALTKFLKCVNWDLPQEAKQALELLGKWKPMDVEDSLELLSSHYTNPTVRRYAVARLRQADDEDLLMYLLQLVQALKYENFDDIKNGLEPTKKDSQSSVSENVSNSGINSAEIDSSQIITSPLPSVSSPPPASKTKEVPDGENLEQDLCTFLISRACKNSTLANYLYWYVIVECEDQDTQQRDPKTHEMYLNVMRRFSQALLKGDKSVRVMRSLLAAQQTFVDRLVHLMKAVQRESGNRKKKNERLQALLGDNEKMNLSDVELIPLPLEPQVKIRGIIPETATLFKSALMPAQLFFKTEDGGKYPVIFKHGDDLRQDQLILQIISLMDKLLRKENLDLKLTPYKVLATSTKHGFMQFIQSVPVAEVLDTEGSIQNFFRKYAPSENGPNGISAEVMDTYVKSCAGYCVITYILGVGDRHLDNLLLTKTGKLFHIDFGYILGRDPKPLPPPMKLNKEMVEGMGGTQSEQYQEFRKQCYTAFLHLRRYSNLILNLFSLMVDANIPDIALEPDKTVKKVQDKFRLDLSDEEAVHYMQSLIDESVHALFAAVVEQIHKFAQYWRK
UniProt Q9P2J5: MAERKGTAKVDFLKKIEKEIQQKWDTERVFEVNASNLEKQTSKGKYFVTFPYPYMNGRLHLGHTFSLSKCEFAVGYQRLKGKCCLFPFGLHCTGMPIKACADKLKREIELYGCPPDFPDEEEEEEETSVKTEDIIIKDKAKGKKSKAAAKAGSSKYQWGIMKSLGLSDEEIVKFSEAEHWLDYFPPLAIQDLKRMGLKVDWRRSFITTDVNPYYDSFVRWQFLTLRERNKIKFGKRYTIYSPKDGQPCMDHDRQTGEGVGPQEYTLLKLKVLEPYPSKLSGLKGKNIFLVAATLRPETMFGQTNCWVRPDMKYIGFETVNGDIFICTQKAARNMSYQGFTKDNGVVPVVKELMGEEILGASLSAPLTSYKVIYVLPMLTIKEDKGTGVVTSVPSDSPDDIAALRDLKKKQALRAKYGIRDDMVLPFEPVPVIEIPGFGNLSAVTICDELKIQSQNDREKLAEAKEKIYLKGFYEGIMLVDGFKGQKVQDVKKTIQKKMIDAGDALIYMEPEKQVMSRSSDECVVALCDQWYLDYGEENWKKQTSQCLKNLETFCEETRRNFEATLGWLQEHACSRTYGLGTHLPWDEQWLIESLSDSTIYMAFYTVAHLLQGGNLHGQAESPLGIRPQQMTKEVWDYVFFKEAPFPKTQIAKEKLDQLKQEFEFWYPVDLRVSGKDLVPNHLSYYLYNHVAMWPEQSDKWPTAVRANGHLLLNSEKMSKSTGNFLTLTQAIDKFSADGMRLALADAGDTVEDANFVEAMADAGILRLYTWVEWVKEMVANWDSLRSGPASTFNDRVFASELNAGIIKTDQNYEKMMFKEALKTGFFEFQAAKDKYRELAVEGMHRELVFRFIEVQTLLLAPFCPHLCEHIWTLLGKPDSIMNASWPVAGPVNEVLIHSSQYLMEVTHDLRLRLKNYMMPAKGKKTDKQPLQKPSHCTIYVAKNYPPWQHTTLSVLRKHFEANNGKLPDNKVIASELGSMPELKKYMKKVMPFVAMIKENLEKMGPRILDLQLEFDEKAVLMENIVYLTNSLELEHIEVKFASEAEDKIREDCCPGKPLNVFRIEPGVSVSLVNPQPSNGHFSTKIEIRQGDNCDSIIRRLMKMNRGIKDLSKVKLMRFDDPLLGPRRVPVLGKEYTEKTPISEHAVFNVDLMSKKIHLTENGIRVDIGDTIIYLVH

Experiments:
Myc-Vps34 [1] = molecular target: Myc-Vps34 (UniProt Q8NEB9); assay: anti-Flag immunoprecipitation from HEK293 cells, Western blot
Myc-Vps34 [2] = molecular target: Myc-Vps34 (UniProt Q8NEB9); assay: told with the kinase assay of Example 2-2; binding from the fragment immunoprecipitation

binding (Myc-Vps34 [1]) | binding (Myc-Vps34 [2]) | Substance
binds |  | Flag-LRS 361-720 amino acid fragment (from UniProt Q9P2J5 361-720) (enzyme)
binds |  | Flag-LRS wild type (WT) (from UniProt Q9P2J5 1-1176) (enzyme)
 | binds | LRS 1-976 amino acid fragment (from UniProt Q9P2J5 1-976) (enzyme)
binds |  | Flag-LRS F50A/Y52A (from UniProt Q9P2J5 1-1176) (enzyme)
